# Test results published in patent publication US5075224A, “Prepro-LHRH C-terminal peptide DNA” (Genentech, Inc., priority 1991, dated 1991).
# Not every detail of the peptide structures is certain; ends, links or a residue may be inferred. Ends that are not written are not given here.
# Assays:
# [1] = test system: anterior pituitary cell culture from female Sprague-Dawley rats (lactotrophs); test: Prolactin (PRL) secretion from rat anterior pituitary cell culture; assay type: cell-based
# [2] = test system: Pituitary cells from female Sprague-Dawley rats; test: LH and FSH release from rat pituitary cell culture; assay type: cell-based
# Description: Pituitary cells from female Sprague-Dawley rats were established in cell culture by the method of K. Nikolics et al., "Peptides" 2: 65-73 (1981). 1 ml of about 1×10^-8 molar concentration of GAP or LHRH in medium 199 (a nutrient medium) was added to a four day pituitary cell culture per 5×10^5 cells. After 4 hours incubation at 37° C. in 5 percent CO2 /95 percent air the cell culture supernatant fluids were assayed for release of LH and FSH.
# The anterior pituitary cell culture from female Sprague-Dawley rats was prepared as described in Example 6. In FIG. 7A the indicated concentrations of GAP (open circles, 10^-11 M; open squares, 3×10^-11 M; closed circles 10^-10 M; open squares, triangle 10^-8 M) were incubated with 5×10^5 cells/ml medium in 24-well culture plates for the indicated time. Media were assayed for PRL and values were expressed in terms of rPRL-RP-2 reference protein (National Pituitary and Hormone Program). The points are means ± standard deviation of four parallel culture wells of which duplicate samples were assayed by RIA. Basal levels were determined from eight parallel wells. The curves shown represent data obtained in three to five independent cell cultures.
# [3] = 10^-8 M test sample, 4 hours incubation at 37° C., four day pituitary cell culture, supernatant
sequence,measurement,setting,value
DAENLIDSFQEIVKEVGQLAETQRFECTTHQPRSPLRDLKGALESLIEEETGQKKI [GAP],magnitude of the inhibitory action on PRL secretion compared with dopamine,[1]; FIG. 7B,comparable to that of dopamine
same,"maximal inhibition of prolactin secretion, level reached as percent of the basal value","[1]; dose- and time-dependent, FIG. 7",45-50% of the basal value
same,prolactin inhibition in the presence of TRH,[1]; in the presence of 10^-7 M TRH,higher does of GAP were required for maximal inhibition
same,FSH (pg)/5 × 10^5 cells,[2]; [3],10496 ± 838 pg/5 × 10^5 cells
same,LH (pg)/5 × 10^5 cells,[2]; [3],25825 ± 2655 pg/5 × 10^5 cells
same,maximum stimulation of the release of both gonadotropins compared with GnRH,[2]; rat anterior pituitary cells,less than that induced by GnRH
same,EC50,"[2]; rat anterior pituitary cells, read-out: Half-maximal stimulation of LH release",2 nM
same,activity in LH and FSH release (in words),[2]; rat pituitary cells,active in stimulating pituitary cells to release LH and FSH
